Here are results for 1 sequence from US20090232783.

This series addresses Nuclear ferritin-H (K562 nuclear extract, crude or heat/proteinase K enriched) (Homo sapiens) (UniProt P02794). Briefly: EMSA. Particulars: protein in an extract; label: 32P. A general note: A gel shift assay detects complexes by their altered migration in electrophoresis.

Where cells or extracts were used, other partners may take part.

For the sequence “AACTCCTAAGCCAGTGCCAGAAGAGCCAAGGACAGGT (double strand) [beta-globin -164/-128 wt oligo]”, the binding result was “binds”.
